Some results were stated once for a whole list of compounds, not compound by compound.
Test system: Listeria monocytogenes NCTC 11994
Assay: Viability (killing) of L. monocytogenes treated with L-lactate and Coumarin
Assay type: cell-based
Conditions: L-lactate 2% alone; 20 minutes

L-lactate
reduction in viability (FIG. 11C): greater than 7 log10 units

From patent US20050148518A1, “Anti-bacterial compositions” (Rowett Research Institute, priority 2002, published 2005)
